PubChem BioAssay AID504774 | Drosophila RNAi Screening Center | 2011

- Screen: 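Genes required for cells to withstand methyl methanesulphonate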 (primary screen)
- System: Drosophila Kc167 cells
- Reagent: long dsRNA against Drosophila genes, about 0.25 µg dsRNA per well
- Duration: about 6 days: 3 days knock-down, then 3 days with or without MMS
- Conditions: methyl methanesulphonate 0.004% (w/v) for 3 days after knock-down
- Measured: 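Viability in wells given MMS, read as ATP luminescence, normalised by quantiles plate by plate and averaged across replicates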
- Direction: mean viability with MMS and viability with MMS: higher = more surviving cells after MMS
The deposit covers about 23,000 reagents; this is an unselected part of those with a known target gene and a result. 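Values are quantile-normalised luminescence on an arbitrary scale; higher means more cells surviving MMS.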 A plus sign joins genes that one reagent is predicted to hit. No sequences are given here.

Target gene	PubChem SID	mean viability with MMS	viability with MMS, replicate 1	viability with MMS, replicate 2
CG31845 (retired record)	SID104201781	3.31e6	3.87e6	3.83e6
CG31845 (retired record)	SID104202431	2.94e6	3.41e6	3.05e6
Rubicon	SID104197681	3.47e6	3.93e6	3.94e6
CG6793	SID104190506	3.67e6	4.04e6	4.23e6
CG14410	SID104199388	3.60e6	4.05e6	4.11e6
levy	SID104184081	3.67e6	4.23e6	4.09e6
CG15579	SID104197859	3.55e6	4.25e6	3.83e6
CG12056	SID104197588	3.62e6	3.88e6	4.23e6
Ilp4 (Insulin-like peptide 4)	SID104190493	3.71e6	4.12e6	4.22e6
CG11313	SID104194087	3.39e6	3.75e6	3.88e6
Cnb (Centrobin)	SID104188361	3.48e6	3.88e6	4.00e6
CG6424	SID104185728	3.54e6	4.00e6	4.02e6
Adgf-A2 (Adenosine deaminase-related growth factor A2)	SID104189299	3.47e6	3.96e6	3.93e6
Dsk (Drosulfakinin)	SID104192139	3.59e6	4.05e6	4.08e6
strat (stratum)	SID104182861	3.55e6	4.25e6	3.80e6
CG4098	SID104190191	3.65e6	4.04e6	4.20e6
Wnt6 (Wnt oncogene analog 6)	SID104182587	3.65e6	4.05e6	4.18e6
CG13138	SID104182027	3.88e6	4.25e6	4.58e6
CadN (Cadherin-N)	SID104183078	3.53e6	3.89e6	4.11e6
CG14207	SID104199354	3.53e6	4.03e6	3.99e6
CG14207	SID104199355	3.56e6	3.98e6	4.09e6
CG11899	SID104196448	3.48e6	3.95e6	3.90e6
CG5174	SID104186712	3.55e6	3.98e6	4.06e6
Synj (Synaptojanin)	SID104184318	3.55e6	4.14e6	3.86e6
pyr (pyramus)	SID104186111	3.45e6	3.90e6	3.84e6
pyr (pyramus)	SID104201966	3.58e6	4.09e6	4.00e6
Gr85a (Gustatory receptor 85a)	SID104192552	3.64e6	4.31e6	3.89e6
5-HT1B (5-hydroxytryptamine (serotonin) receptor 1B)	SID104184823	3.42e6	3.96e6	3.76e6
5-HT1B (5-hydroxytryptamine (serotonin) receptor 1B)	SID104185561	2.68e6	3.49e6	3.46e6
Jhbp11 (Juvenile hormone binding protein 11)	SID104194975	3.49e6	3.96e6	3.94e6
CG34163	SID104181011	3.41e6	3.79e6	3.93e6
Cyp12b2 (Cytochrome P450 12b2)	SID104187156	3.53e6	4.06e6	3.93e6
CG15771	SID104197869	3.47e6	4.06e6	3.83e6
CG8818	SID104187067	3.62e6	4.14e6	4.08e6
CG2681	SID104198256	3.58e6	4.05e6	4.07e6
CG5707	SID104188365	3.44e6	3.93e6	3.87e6
Prp6 (pre-mRNA processing factor 6)	SID104190516	3.58e6	3.96e6	4.14e6
Prp6 (pre-mRNA processing factor 6)	SID104201438	3.25e6	3.80e6	3.76e6
Slob (Slowpoke binding protein)	SID104182088	3.52e6	4.10e6	3.88e6
tsr (twinstar)	SID104184510	3.39e6	3.85e6	3.80e6
NKCC (sodium potassium chloride cotransporter)	SID104191932	3.50e6	3.78e6	4.15e6
NKCC (sodium potassium chloride cotransporter)	SID104192103	3.61e6	4.12e6	4.07e6
Gpdh2 (Glycerol-3-phosphate dehydrogenase 2)	SID104184138	3.68e6	4.36e6	3.97e6
CG33998	SID104185539	3.57e6	4.12e6	3.96e6
CG5151	SID104190279	3.08e6	3.56e6	3.62e6
CG5151	SID104202577	3.50e6	4.07e6	3.91e6
Gat (GABA transporter)	SID104196936	3.65e6	4.19e6	4.08e6
ppk28 (pickpocket 28)	SID104199711	3.52e6	3.96e6	4.03e6
CG14883	SID104194799	3.33e6	3.71e6	3.83e6
COX6CL (Cytochrome c oxidase subunit 6C-like)	SID104180687	3.85e6	4.30e6	4.31e6
GstE5 (Glutathione S transferase E5)	SID104186467	3.64e6	4.16e6	4.08e6
m (miniature)	SID104199973	3.43e6	3.86e6	3.92e6
jp (junctophilin)	SID104182005	3.76e6	4.44e6	4.12e6
jp (junctophilin)	SID104182536	3.45e6	3.94e6	3.86e6
lcs (la costa)	SID104200372	3.53e6	4.02e6	4.00e6
Uba1 (Ubiquitin activating enzyme 1)	SID104187359	3.55e6	4.13e6	3.94e6
CG13685	SID104189835	3.49e6	3.96e6	3.97e6
CG32642	SID104198751	3.51e6	4.06e6	3.91e6
SkpE (SKP1-related E)	SID104199223	3.70e6	4.16e6	4.15e6
Qsox3 (Quiescin sulfhydryl oxidase 3)	SID104195888	3.37e6	3.75e6	3.94e6
CG34056	SID104188166	3.55e6	3.89e6	4.14e6
CG10038	SID104193970	3.83e6	4.33e6	4.36e6
vih (vihar)	SID104189570	3.17e6	3.55e6	3.57e6
CG15646	SID104199474	3.55e6	3.98e6	4.07e6
Tmem43 (Transmembrane protein 43)	SID104190756	3.40e6	3.88e6	3.82e6
Cds (CDP-diacylglycerol synthase)	SID104190730	3.55e6	4.03e6	4.02e6
CG12594	SID104194324	3.74e6	4.23e6	4.07e6
yki (yorkie)	SID104184229	3.58e6	3.95e6	4.07e6
Hsp70Bb + Hsp70Ba + Hsp70Bc + 1 more	SID104201039	3.28e6	3.77e6	3.77e6
Hsp70Bb + Hsp70Ba + Hsp70Bc + 1 more	SID104201040	3.24e6	3.72e6	3.76e6
Art6 (Arginine methyltransferase 6)	SID104196375	3.44e6	3.95e6	3.84e6
CG11333	SID104194093	3.49e6	3.81e6	4.13e6
CG15506	SID104194839	3.47e6	3.91e6	3.93e6
Phyhd1 (Phytanoyl-CoA dioxygenase domain containing 1)	SID104194703	3.67e6	4.04e6	4.19e6
CG13962	SID104182096	3.41e6	3.88e6	3.81e6
Pepck1 (Phosphoenolpyruvate carboxykinase 1)	SID104187297	3.58e6	4.08e6	4.02e6
eIF4E3 (eukaryotic translation initiation factor 4E3)	SID104190744	3.54e6	4.02e6	4.03e6
beat-Ib (beaten path Ib)	SID104183282	3.61e6	3.99e6	4.19e6
CG32563	SID104199726	3.44e6	3.80e6	3.98e6
CG5543	SID104184303	3.39e6	3.94e6	3.83e6
CG10752	SID104189591	3.47e6	3.88e6	3.99e6
Ctr9	SID104188354	3.49e6	4.10e6	3.81e6
Hr78 (Hormone-receptor-like in 78)	SID104191658	3.54e6	3.92e6	4.10e6
CG42516 + Pbp49	SID104185865	3.64e6	4.21e6	4.06e6
Sem1 (Suppressor of exocyst mutations 1)	SID104182074	3.01e6	3.37e6	3.35e6
Sras (severas)	SID104191079	3.56e6	4.04e6	4.04e6
CG12419 (retired record)	SID104194305	3.48e6	3.98e6	3.93e6

An excerpt taken from the entries so far, as a working copy:
Target gene	PubChem SID	mean viability with MMS	viability with MMS, replicate 1	viability with MMS, replicate 2
Hsp70Bb + Hsp70Ba + Hsp70Bc + 1 more	SID104201040	3.24e6	3.72e6	3.76e6
Art6 (Arginine methyltransferase 6)	SID104196375	3.44e6	3.95e6	3.84e6
CG11333	SID104194093	3.49e6	3.81e6	4.13e6
CG15506	SID104194839	3.47e6	3.91e6	3.93e6
Phyhd1 (Phytanoyl-CoA dioxygenase domain containing 1)	SID104194703	3.67e6	4.04e6	4.19e6
CG13962	SID104182096	3.41e6	3.88e6	3.81e6
Pepck1 (Phosphoenolpyruvate carboxykinase 1)	SID104187297	3.58e6	4.08e6	4.02e6
eIF4E3 (eukaryotic translation initiation factor 4E3)	SID104190744	3.54e6	4.02e6	4.03e6
beat-Ib (beaten path Ib)	SID104183282	3.61e6	3.99e6	4.19e6
CG32563	SID104199726	3.44e6	3.80e6	3.98e6
CG5543	SID104184303	3.39e6	3.94e6	3.83e6
